In experiment [1] the test system is U87MG pLVX-IDH2 R140Q-neo cells. Nature of the experiment: U87MG pLVX-IDH2 R140Q-neo cell based assay, 2-HG in media by LC-MS at 48 hours. Particulars: read-out: Cell R140Q.
For experiment [2], the target named is IDH2 R140Q (Homo sapiens, UniProt P48735, R140Q). Nature of the experiment: IDH2 R140Q enzymatic assay (cofactor depletion, similar format). The conditions noted are these: read-out: Enz R140Q.
The target in experiment [3] is IDH2 R172K (Homo sapiens, UniProt P48735, R172K). As to the kind of experiment: IDH2 R172K enzymatic assay (NADPH cofactor depletion, diaphorase/resazurin readout). Particulars: read-out: Enz R172K. (In general: The colour change of resazurin is a common sign of viable cells or microbes.)

Amino acid sequences for entries named in this document (tags omitted). Residues count along the entry.
UniProt P48735, 40-452 R140Q limits assumed: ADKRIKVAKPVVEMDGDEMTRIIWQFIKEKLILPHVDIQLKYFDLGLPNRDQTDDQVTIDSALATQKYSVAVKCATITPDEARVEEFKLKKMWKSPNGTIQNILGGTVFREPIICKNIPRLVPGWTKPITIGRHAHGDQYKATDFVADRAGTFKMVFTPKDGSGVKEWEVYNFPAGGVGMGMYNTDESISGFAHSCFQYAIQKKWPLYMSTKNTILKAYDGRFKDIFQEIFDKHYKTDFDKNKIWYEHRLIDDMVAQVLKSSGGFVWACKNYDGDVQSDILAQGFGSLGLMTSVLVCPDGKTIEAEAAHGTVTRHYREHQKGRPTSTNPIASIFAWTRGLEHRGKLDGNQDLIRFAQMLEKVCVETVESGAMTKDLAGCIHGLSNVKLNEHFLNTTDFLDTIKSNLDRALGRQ
UniProt P48735, 40-452 R172K limits assumed: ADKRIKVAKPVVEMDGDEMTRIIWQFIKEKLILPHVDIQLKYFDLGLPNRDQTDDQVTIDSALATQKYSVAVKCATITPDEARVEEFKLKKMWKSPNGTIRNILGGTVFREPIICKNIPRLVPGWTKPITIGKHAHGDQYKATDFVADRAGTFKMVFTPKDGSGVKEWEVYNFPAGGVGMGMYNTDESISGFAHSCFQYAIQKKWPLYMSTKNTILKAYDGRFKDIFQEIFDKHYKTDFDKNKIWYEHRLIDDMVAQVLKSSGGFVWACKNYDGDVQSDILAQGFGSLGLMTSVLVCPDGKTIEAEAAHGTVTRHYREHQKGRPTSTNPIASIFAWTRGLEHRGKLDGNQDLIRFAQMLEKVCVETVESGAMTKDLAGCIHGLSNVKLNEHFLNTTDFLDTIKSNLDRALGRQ

SMILES strings stand for the structures. The match of structure and compound is tentative. Bounds are passed on as bounds.

For `CC(C)Nc1nc(Nc2ccccc2O)nc(-c2ccccc2)n1`, the results for the IC50 in experiment [1] and in experiment [2] were 100 to 1000 nM and below 100 nM, respectively.

For the compound `CC(C)Nc1nc(Nc2ccnc(C#N)c2)nc(-c2nccc(C(F)(F)F)n2)n1`, the IC50 is below 100 nM in experiment [3], below 100 nM in experiment [1] and 100 to 1000 nM in experiment [2].

As to `CC(C)(C)OC(=O)N1CCC(Nc2nc(Nc3ccnc(C(F)(F)F)c3)nc(-c3cccc(Cl)n3)n2)CC1`, the values for the IC50 in experiment [3], in experiment [1] and in experiment [2] were 1000 to 10000 nM, 100 to 1000 nM and 100 to 1000 nM, respectively.

Consider `CC(C)(O)CNc1nc(Nc2cncc(C#N)c2)nc(-c2cccc(C(F)(F)F)n2)n1`, for which the IC50 in experiment [1] lay within 100 to 1000 nM; in experiment [2] it was 1000 to 10000 nM.

As to `CC(C)CNc1nc(Nc2ccnc(C#N)c2)nc(-c2cccc(C(F)(F)F)n2)n1`, the IC50 in experiment [1] was below 100 nM; in experiment [2], 100 to 1000 nM.

Take `COCC(C)Nc1nc(Nc2ccnc(C(F)(F)F)c2)nc(-c2cccc(C(F)(F)F)n2)n1` (stereo not drawn): the IC50 was below 100 nM in experiment [3], below 100 nM in experiment [1] and 100 to 1000 nM in experiment [2].

On to `CC(C)Nc1nc(Nc2ccccc2)nc(-c2cccc(O)n2)n1`, for which the IC50 in experiment [2] lay in the range of 100 to 1000 nM.

Take `CC(C)Nc1nc(Nc2ccnc(C(C)(C)O)c2)nc(-c2ccccc2)n1`: the IC50 in experiment [1] was below 100 nM; in experiment [2] it was 100 to 1000 nM.

For the compound `CC(C)(C)CNc1nc(Nc2cncc(C#N)c2)nc(-c2nccc(C(F)(F)F)n2)n1`, the IC50 in experiment [3] was 100 to 1000 nM; in experiment [1], below 100 nM; in experiment [2], 100 to 1000 nM.

For the origin of these results see US9512107B2, “Therapeutically active compositions and their methods of use” (Agios Pharmaceuticals, Inc., priority 2012, dated 2016).
